# Source: PubChem BioAssay (EPA / NIEHS)
# Chains of the proteins cited; added tags and fusions are not shown. Lines headed by an entry give the natural chain unless they say otherwise; changes in a name come on top.
# UniProt P37231: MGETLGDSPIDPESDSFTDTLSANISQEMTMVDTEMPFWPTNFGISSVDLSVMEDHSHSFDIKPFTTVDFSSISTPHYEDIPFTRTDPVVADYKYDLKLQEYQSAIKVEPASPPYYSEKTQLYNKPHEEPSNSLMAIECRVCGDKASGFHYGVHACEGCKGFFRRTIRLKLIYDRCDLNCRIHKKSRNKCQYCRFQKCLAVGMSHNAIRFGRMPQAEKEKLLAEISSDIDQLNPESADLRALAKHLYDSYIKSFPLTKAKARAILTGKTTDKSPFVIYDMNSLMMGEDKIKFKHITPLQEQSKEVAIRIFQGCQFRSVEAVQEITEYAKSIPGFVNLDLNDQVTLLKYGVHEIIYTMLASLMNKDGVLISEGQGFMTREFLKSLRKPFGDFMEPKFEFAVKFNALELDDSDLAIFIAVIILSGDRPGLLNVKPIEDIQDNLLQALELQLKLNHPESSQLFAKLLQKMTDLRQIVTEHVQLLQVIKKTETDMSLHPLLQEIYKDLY
# UniProt P13631, whole entry, looked up: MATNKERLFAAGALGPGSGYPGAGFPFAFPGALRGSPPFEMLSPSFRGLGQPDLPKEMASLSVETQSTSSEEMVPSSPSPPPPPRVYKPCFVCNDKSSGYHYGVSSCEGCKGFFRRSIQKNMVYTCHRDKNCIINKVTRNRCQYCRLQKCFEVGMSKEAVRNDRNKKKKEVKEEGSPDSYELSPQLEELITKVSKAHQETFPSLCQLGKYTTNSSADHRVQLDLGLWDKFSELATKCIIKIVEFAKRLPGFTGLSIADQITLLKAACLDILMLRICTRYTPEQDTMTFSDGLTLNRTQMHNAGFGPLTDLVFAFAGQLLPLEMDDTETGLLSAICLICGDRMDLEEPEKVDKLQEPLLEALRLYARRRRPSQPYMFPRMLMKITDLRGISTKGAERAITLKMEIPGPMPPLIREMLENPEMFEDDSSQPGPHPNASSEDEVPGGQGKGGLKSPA
# UniProt P28702: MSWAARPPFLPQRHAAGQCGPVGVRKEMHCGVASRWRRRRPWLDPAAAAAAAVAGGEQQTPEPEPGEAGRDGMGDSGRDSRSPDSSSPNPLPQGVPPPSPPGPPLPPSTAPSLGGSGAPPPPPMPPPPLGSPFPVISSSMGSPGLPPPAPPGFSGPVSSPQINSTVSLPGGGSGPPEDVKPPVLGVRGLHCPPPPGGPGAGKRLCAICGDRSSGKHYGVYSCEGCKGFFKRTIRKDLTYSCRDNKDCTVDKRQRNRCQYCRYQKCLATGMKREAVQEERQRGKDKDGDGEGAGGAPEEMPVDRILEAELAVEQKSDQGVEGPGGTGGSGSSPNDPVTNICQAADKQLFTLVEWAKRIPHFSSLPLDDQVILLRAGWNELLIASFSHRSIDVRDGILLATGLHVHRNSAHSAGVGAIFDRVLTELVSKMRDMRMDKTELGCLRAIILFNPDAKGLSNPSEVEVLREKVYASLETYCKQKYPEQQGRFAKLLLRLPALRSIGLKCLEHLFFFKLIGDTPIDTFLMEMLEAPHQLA
# UniProt P10827: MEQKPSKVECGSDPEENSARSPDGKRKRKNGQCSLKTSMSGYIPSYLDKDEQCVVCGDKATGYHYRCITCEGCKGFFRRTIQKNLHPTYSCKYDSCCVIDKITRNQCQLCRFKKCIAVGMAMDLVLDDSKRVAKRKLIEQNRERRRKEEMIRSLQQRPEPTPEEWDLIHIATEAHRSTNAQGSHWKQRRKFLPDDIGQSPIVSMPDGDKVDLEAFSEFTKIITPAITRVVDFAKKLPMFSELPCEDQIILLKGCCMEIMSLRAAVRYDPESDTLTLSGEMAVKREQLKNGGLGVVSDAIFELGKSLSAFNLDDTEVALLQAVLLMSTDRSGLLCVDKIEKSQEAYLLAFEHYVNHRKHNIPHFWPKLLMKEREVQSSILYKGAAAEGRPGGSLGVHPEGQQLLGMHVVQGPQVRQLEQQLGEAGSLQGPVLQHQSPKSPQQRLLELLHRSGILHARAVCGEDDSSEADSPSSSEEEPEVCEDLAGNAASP
# UniProt Q92753: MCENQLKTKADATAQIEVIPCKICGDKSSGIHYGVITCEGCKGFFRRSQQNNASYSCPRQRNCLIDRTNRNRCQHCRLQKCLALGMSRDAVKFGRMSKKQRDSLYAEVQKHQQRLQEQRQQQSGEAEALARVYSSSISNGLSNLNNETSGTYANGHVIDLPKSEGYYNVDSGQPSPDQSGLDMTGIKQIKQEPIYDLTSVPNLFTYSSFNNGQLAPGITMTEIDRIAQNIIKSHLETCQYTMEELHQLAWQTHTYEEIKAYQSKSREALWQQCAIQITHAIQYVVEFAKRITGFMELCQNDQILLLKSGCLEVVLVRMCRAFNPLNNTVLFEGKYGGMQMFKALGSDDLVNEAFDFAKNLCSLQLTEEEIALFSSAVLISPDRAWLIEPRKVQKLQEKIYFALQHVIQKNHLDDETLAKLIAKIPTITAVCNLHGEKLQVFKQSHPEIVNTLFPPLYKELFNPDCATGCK
# UniProt P51449: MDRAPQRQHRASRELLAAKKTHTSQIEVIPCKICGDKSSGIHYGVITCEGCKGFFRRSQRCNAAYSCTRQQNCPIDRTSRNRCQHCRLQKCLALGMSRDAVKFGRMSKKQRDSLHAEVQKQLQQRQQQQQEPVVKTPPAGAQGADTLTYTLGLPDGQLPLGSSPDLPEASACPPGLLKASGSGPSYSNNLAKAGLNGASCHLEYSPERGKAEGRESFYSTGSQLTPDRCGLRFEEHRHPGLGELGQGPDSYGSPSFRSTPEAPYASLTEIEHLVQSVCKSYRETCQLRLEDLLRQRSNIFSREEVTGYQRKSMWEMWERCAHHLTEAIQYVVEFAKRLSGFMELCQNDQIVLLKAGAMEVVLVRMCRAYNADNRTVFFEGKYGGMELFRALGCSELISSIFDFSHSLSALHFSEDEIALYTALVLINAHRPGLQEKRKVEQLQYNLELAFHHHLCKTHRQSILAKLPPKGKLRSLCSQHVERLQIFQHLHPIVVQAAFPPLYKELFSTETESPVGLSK
# UniProt P19793: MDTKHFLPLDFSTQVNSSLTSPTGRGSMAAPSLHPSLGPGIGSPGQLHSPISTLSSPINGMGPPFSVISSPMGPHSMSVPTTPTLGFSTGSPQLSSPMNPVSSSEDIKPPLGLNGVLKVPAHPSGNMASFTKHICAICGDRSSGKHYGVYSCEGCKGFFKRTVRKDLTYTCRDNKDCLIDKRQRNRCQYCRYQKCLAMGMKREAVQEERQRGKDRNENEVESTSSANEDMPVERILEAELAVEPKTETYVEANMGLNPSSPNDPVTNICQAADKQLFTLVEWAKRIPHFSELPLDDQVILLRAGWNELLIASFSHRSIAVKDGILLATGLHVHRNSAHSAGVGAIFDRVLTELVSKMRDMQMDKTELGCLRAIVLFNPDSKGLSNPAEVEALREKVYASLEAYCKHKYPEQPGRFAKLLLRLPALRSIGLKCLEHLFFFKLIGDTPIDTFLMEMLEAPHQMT
# UniProt P11473: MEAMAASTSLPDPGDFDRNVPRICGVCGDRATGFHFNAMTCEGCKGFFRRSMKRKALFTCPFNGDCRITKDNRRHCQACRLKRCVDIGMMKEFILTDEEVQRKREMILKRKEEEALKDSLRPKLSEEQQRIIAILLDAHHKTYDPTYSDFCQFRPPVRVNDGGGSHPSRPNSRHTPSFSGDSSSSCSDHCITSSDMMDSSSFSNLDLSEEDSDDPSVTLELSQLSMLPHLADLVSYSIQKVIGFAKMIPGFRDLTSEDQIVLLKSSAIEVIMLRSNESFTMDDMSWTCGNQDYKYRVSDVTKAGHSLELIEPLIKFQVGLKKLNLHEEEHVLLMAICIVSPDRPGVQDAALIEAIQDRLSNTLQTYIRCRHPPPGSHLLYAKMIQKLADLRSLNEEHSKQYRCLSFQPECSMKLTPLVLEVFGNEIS
# The shares of active, inactive and inconclusive entries below differ from those in the screen. Potencies beside an inconclusive call are fits to weak or partial responses and may not hold up. Calls of active or inactive are those of the source. Rule for the calls: active = hit-call score of the fitted dose curve at least 0.9, where 1 is the maximum; inconclusive = response in the unintended direction; inactive = score below 0.9.
# Tests used:
# [1] = target: Peroxisome proliferator-activated receptor gamma (Homo sapiens) (UniProt P37231); assay: ATG_PPARg_TRANS: Attagene TRANS-FACTORIAL HepG2 Assay for human Peroxisome Proliferator-activated Receptor-gamma (PPARg) (AID 2283007)
# Outline: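 Transient transfection of HepG2 with GAL4-UAS-driven reporter units; chemical dosing 24 h; total RNA → oligo(dT) RT → PCR with reporter primers → 6-FAM primer extension → HpaI digest 2 h 37 C → capillary electrophoresis. Positive direction vs DMSO.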
# [2] = target: human Retinoic Acid Receptor gamma (RARg), RARG (gene 5916) (UniProt P13631); assay: ATG_RARg_TRANS: Attagene TRANS-FACTORIAL HepG2 Assay for human Retinoic Acid Receptor gamma (RARg) (AID 2283009);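 for AC50: AC50 is for reporter induction above DMSO meaning RARg activation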
# Outline: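 Gain-of-signal relative to DMSO is reported from fluorescent capillary electrophoresis of RT-PCR reporter products. These came from HepG2 cells expressing transfected RARg-GAL4 chimeras with UAS reporters, harvested 24 h after dosing.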
# [3] = target: human Retinoid X Receptor beta (RXRb), RXRB (gene 6257) (UniProt P28702); assay: ATG_RXRb_TRANS: Attagene TRANS-FACTORIAL HepG2 Assay for human Retinoid X Receptor beta (RXRb) (AID 2283013)
# Outline: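 After a 24 h incubation with test chemical, transfected HepG2 cells carrying NR-Gal4 fusions and GAL4-UAS reporter transcription units yield RNA whose reporter cDNA is FAM-labelled, HpaI-cut and sized by capillary electrophoresis; increases over DMSO are scored.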
# [4] = target: human Thyroid Receptor alpha (THRa1), THRA (gene 7067) (UniProt P10827); assay: ATG_THRa1_TRANS: Attagene TRANS-FACTORIAL HepG2 Assay for human Thyroid Receptor alpha (THRa1) (AID 2283014)
# Outline: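 HepG2 cells transiently transfected with multiplexed GAL4-UAS reporter units for exogenous chimeric THRa1-Gal4; reporter mRNA measured 24 h after dosing by RT-PCR, 6-FAM labelling, HpaI digestion and capillary electrophoresis. Gain-of-signal fitted versus DMSO baseline.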
# [5] = target: human RAR-related Orphan Receptor beta (RORb), RORB (gene 6096) (UniProt Q92753); assay: ATG_RORb_TRANS: Attagene TRANS-FACTORIAL HepG2 Assay for human RAR-related Orphan Receptor beta (RORb) (AID 2283010);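 for AC50: potency for increased reporter mRNA meaning activation of RORb-Gal4 chimera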
# Outline: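 Multiplexed transcription-factor reporter assay: HepG2 cells transiently carrying NR-Gal4/GAL4-UAS constructs, 24 h treatment, mRNA quantified by RT-PCR plus capillary electrophoresis fluorescence; activity scored as induction over DMSO.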
# [6] = target: human RAR-related Orphan Receptor gamma (RORg), RORC (gene 6097) (UniProt P51449); assay: ATG_RORg_TRANS: Attagene TRANS-FACTORIAL HepG2 Assay for human RAR-related Orphan Receptor gamma (RORg) (AID 2283011);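 for AC50: potency for induction of reporter transcripts above DMSO so activators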
# Outline: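 Readout: reporter transcript induction (RT-PCR, fluorescent primer extension, capillary electrophoresis) after 24 h compound exposure of transiently transfected HepG2 cells carrying a RORg-Gal4 chimera and GAL4-UAS reporters; DMSO served as baseline, with increasing signal fitted.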
# [7] = target: Retinoic acid receptor RXR-alpha (Homo sapiens) (UniProt P19793); assay: ATG_RXRa_TRANS: Attagene TRANS-FACTORIAL HepG2 Assay for human Retinoid X Receptor alpha (RXRa) (AID 2283012)
# Outline: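 Chimeric NR-GAL4 trans-activation in HepG2, 24 h treatment; reporter transcripts quantified by fluorescence on capillary electrophoresis, analysed for upward change from DMSO.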
# [8] = target: human Vitamin D Receptor (VDR), VDR (gene 7421) (UniProt P11473); assay: ATG_VDR_TRANS: Attagene TRANS-FACTORIAL HepG2 Assay for human Vitamin D Receptor (VDR) (AID 2283022)
# Outline: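 HepG2 cells were transiently transfected with multiple GAL4-UAS reporter units, so signal reflects exogenous chimeric receptor-Gal4 activity. After 24 h compound exposure, reporter mRNA was measured by RT-PCR, fluorescent labelling and capillary electrophoresis, fitted for gain of signal versus DMSO.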
structure (smiles),measurement,setting,value
Nc1nc2ccc([N+](=O)[O-])cc2s1,AC50,[1],active: 29.7 µM
same,AC50,[2],inconclusive: 16.4 µM
same,outcome,[3],inactive
same,outcome,[4],inactive
CCCN(C1CCN(C(=O)C2CCNCC2)CC1)[C@@H]1CCc2ccc(OC)cc2C1,AC50,[1],active: 100 µM
same,AC50,[5],inconclusive: 100 µM
same,AC50,[6],inconclusive: 100 µM
same,outcome,[3],inactive
COC(=O)C(F)(F)C(F)(F)C(F)(F)C(F)(F)C(F)(F)F,AC50,[1],inconclusive: 150 µM
same,AC50,[5],inconclusive: 150 µM
same,AC50,[6],inconclusive: 150 µM
same,AC50,[7],inconclusive: 150 µM
same,AC50,[3],inconclusive: 150 µM
same,AC50,[4],inconclusive: 150 µM
same,outcome,[8],inactive
CN(C)CCOc1ccc(/C(=C(/CCCl)c2ccccc2)c2ccccc2)cc1,AC50,[1],inconclusive: 3.19 µM
same,AC50,[5],inconclusive: 3.19 µM
same,AC50,[6],inconclusive: 3.19 µM
same,outcome,[7],inactive
same,AC50,[8],inconclusive: 0.00262 µM
CCCCCCCCCCCCCC,AC50,[1],inconclusive: 100 µM
same,AC50,[5],inconclusive: 185 µM
same,AC50,[6],inconclusive: 100 µM
same,outcome,[3],inactive
COC(=O)CCC(F)(F)C(F)(F)C(F)(F)C(F)(F)F,AC50,[1],inconclusive: 150 µM
same,AC50,[5],inconclusive: 150 µM
same,AC50,[6],inconclusive: 260 µM
same,AC50,[7],inconclusive: 150 µM
COC(=O)OC,AC50,[1],inconclusive: 100 µM
same,AC50,[5],inconclusive: 100 µM
same,outcome,[6],inactive
same,outcome,[7],inactive
same,outcome,[3],inactive
same,AC50,[4],inconclusive: 100 µM
O=S(=O)(O)c1ccc(O)c2ncccc12,AC50,[1],inconclusive: 6.36 µM
same,outcome,[5],inactive
O=C(O)c1ccc(C(=O)O)cc1,AC50,[1],inconclusive: 0.109 µM
same,AC50,[5],inconclusive: 100 µM
same,outcome,[6],inactive
same,AC50,[7],inconclusive: 100 µM
same,AC50,[3],inconclusive: 100 µM
same,AC50,[8],inconclusive: 100 µM
CC1CC(O)CC(C)(C)C1 (stereo not given),AC50,[1],inconclusive: 0.0652 µM
same,outcome,[5],inactive
same,AC50,[6],inconclusive: 182 µM
same,outcome,[7],inactive
same,AC50,[8],inconclusive: 100 µM
CCc1cccc(CC)c1N(COC)C(=O)CS(=O)(=O)O,outcome,[1],inactive
same,AC50,[5],inconclusive: 183 µM
same,AC50,[6],inconclusive: 100 µM
same,outcome,[7],inactive
same,AC50,[3],inconclusive: 100 µM
same,AC50,[8],inconclusive: 24.4 µM
Cc1cc(=O)[nH]c(C(C)C)n1,AC50,[1],inconclusive: 182 µM
same,outcome,[5],inactive
same,outcome,[6],inactive
same,AC50,[7],inconclusive: 180 µM
same,outcome,[8],inactive
NNC(=O)c1ccncc1,outcome,[1],inactive
same,outcome,[5],inactive
same,outcome,[6],inactive
same,outcome,[7],inactive
same,AC50,[3],inconclusive: 44 µM
same,outcome,[4],inactive
CC(O)C(C)O (stereo not given),AC50,[1],inconclusive: 100 µM
same,outcome,[5],inactive
same,AC50,[3],inconclusive: 100 µM
same,outcome,[4],inactive
Nc1cccc(N)c1,AC50,[1],inconclusive: 100 µM
same,outcome,[5],inactive
same,outcome,[7],inactive
same,AC50,[3],inconclusive: 100 µM
same,outcome,[4],inactive
O=C(Nc1ccccc1)c1ccccc1O,AC50,[1],active: 55.9 µM
same,AC50,[5],inconclusive: 166 µM
same,AC50,[6],inconclusive: 19.8 µM
same,outcome,[3],inactive
same,outcome,[4],inactive

# A different layout for part of the listing above:
structure (smiles) | measurement | setting | value
O=S(=O)(O)c1ccc(O)c2ncccc12 | AC50 | [1] | inconclusive: 6.36 µM
same | outcome | [5] | inactive
O=C(O)c1ccc(C(=O)O)cc1 | AC50 | [1] | inconclusive: 0.109 µM
same | AC50 | [5] | inconclusive: 100 µM
same | outcome | [6] | inactive
